# Assay results taken from PubChem BioAssay AID743266 (National Center for Advancing Translational Sciences (NCATS), 2014).
# By UniProt entry, the sequences of proteins in these tests, tags left out. Where a name states a change or a piece, a line headed by the entry shows the natural chain unless it says otherwise.
# UniProt Q03431: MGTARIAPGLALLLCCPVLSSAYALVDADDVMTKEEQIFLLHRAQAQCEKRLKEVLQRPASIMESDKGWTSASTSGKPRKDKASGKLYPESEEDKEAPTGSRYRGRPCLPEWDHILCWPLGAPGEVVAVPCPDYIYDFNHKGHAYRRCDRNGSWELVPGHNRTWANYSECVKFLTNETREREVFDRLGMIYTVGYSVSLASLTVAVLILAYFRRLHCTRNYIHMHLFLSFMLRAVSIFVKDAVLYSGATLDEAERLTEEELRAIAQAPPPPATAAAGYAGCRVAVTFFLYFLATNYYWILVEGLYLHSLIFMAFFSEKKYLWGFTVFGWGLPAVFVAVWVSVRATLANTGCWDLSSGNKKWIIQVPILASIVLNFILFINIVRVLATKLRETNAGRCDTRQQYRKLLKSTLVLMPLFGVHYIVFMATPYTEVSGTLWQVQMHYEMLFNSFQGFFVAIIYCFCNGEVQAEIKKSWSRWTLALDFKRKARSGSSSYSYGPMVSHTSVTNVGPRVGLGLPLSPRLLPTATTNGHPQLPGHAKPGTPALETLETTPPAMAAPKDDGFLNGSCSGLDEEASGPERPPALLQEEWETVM
# The campaign covered roughly 410,000 compounds. About 310 (0.076%) were called active. Inconclusive means that the source gave no clear call. Such entries were picked first, then a sample of the others. The call rests on the fitted dose curve; in most records, active means well fitted activation curve with a large enough effect; inconclusive means small, poorly fitted or top-dose-only effect, or another doubt; inactive means no such curve, though single readings can be large or run the other way. A potency beside an inconclusive call is a rough fit, not a confirmed value.
# Target: Parathyroid hormone/parathyroid hormone-related peptide receptor (Homo sapiens) (UniProt Q03431)
# Test: qHTS for PTHR1 Agonists: Primary Screen; further: nearly all actives have a fitted effect of over 55% in size
# Settings: HEK293 GP2 PTHR1 cells, GloSensor cAMP luminescence, 1 h; activation: at 115 µM (top of the series) unless noted; series mostly up to 115 µM
# Summary of the method: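 HEK-293-derived GP2 cells expressing PTHR1 and a GloSensor cAMP reporter, 3,000/well, plated overnight, given luciferin plus IBMX (each 0.5 mM as added) for 1 h at 37 °C, then compound for 1 h at 37 °C. Luminescence was read after 15 min at room temperature.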
# Potency means the concentration at half of the fitted maximal effect.
SMILES,activation,Potency,outcome
O=C(COc1ccc(Cl)cc1)OCc1cc(=O)n2nc(C3CCCCC3)sc2n1,inactive: -5.79%,–,–
Cc1ccc(N(C)C(=O)CCNC(=O)Cn2cnc3ccccc3c2=O)cc1C,–,"inconclusive: 141 µM [activator, single point]",–
Cc1ccc(N(CC(=O)NCC2CCCO2)S(=O)(=O)c2ccccc2)c(C)c1 (stereo not drawn),inactive: 4.07%,–,–
Cc1sc(N(C(=O)CCc2ccccc2)c2ccc(C(=O)O)cc2)nc1-c1ccccc1,inactive: -37.1%,–,–
CCN(CC)CCN(C(=O)CCOc1ccccc1)c1nc2ccc(F)cc2s1,–,"inconclusive: 126 µM [activator, single point]",–
O=S(=O)(Nc1ccccc1N1CCCCC1)c1ccc(Cl)s1,inactive: -2.54% [at 57.5 µM],–,–
O=C(Nc1ncc(S(=O)(=O)c2ccc([N+](=O)[O-])cc2)s1)c1cccnc1,inactive: -27%,–,–
CC(C)CCNC(=O)c1ccc2nc(Cc3ccccc3)oc2c1,inactive: -2.15%,–,–
Cc1ccc(/C=N/n2c(C)n[nH]c2=S)o1,inconclusive: 37.1% [activator] [at 57.5 µM],–,–
CNC(=S)N/N=C(\C)c1ccccc1,inactive: -26.3%,–,–
CN1c2ccccc2N(C)C1c1c(O)ccc2ccccc12,–,"inconclusive: 44.7 µM [activator, single point]",–
CCOc1ccccc1NC(=O)Cn1c(=O)nc(-c2ccccc2F)c2cc(Cl)ccc21,inactive: -59.8%,–,–
Cc1nn(-c2ccccc2)c(Cl)c1C(=O)OC(C)C(=O)NC(=O)NC1CCCCC1 (stereo not drawn),inconclusive: 30.7% [activator],–,–
CCn1nc(C(=O)O)c(=O)c2cc3c(cc21)OCO3,–,"inconclusive: 2.24 µM [activator, full curve]",–
CCN(CC)S(=O)(=O)c1cccc(NC(=O)COC(=O)c2[nH]c(C)c(C(C)=O)c2C)c1,inactive: -5.16%,–,–
COc1ccccc1Nc1nn2c(=O)c3ccc(C(=O)NCCc4ccccc4)cc3nc2s1,–,"inconclusive: 44.7 µM [activator, partial curve, poor fit]",–
CC(C)N1CCc2c(sc(NC(=O)CCS(=O)(=O)c3ccccc3)c2C#N)C1,–,–,inactive
COCCSc1nc(N)c2c3c(sc2n1)CN(C)CC3,–,"inconclusive: 11.2 µM [activator, full curve, poor fit]",–
CC(=O)Nc1ccc(NC(=O)c2ccc3c(c2)CCN3S(=O)(=O)c2ccc(C)cc2)cc1,inconclusive: 46.9% [activator],–,–
CCCS(=O)(=O)N1CCCC(C(=O)NCCN(CC)CC)C1 (stereo not drawn),–,"inconclusive: 39.8 µM [activator, single point]",–
O=C(O)C1OC(Oc2c(-c3ccc(O)c(O)c3)oc3cc(O)cc(O)c3c2=O)C(O)C(O)C1O (stereo not drawn),–,"inconclusive: 158 µM [activator, single point]",–
CCc1c(C)nc2ncnn2c1NC1CCCc2ccccc21 (stereo not drawn),inactive: -21.8%,–,–
COc1ccc(-c2cn3c(n2)sc2cc(C(=O)NCCCN4CCN(C)CC4)ccc23)cc1,–,"inconclusive: 56.2 µM [activator, partial curve, poor fit]",–
COc1ccc(-c2cc(C(=O)NCCN3CCOCC3)c3ccccc3n2)cc1,–,–,inactive [at 57.5 µM]

SMILES,activation,Potency,outcome
CCOc1ccc(-c2cn3c(n2)sc2cc(C(=O)NC(C)C45CC6CC(CC(C6)C4)C5)ccc23)cc1 (stereo not drawn),–,"inconclusive: 35.5 µM [activator, single point]",–
CCOc1c(CNCCCSc2nc(C)cc(C)n2)cccc1OC,inactive: -24.8%,–,–
CCC(CC)NC(=O)c1ccc2nc[nH]c2c1,–,"inconclusive: 50.1 µM [activator, single point]",–
Cc1nc2ccccc2c2oc(C(=O)Nc3ccc(C(C)C)cc3)cc12,inactive: -67.1%,–,–
Cc1ccn2c(=O)c(NC(=O)c3cccs3)c(C)nc2c1,inconclusive: 33.8% [activator],–,–
CCCCOc1ccc(C(=O)N2CCN(c3ncccn3)CC2)cc1,–,"inconclusive: 79.4 µM [activator, partial curve, poor fit]",–
CC(C)C(=O)N1CCC(Cc2ccccc2)CC1,inconclusive: 32.1% [activator],–,–
Cc1ccc(-n2sc3ccccc3c2=O)cc1S(=O)(=O)N1CCCCC1,–,–,inactive
CCOC(=O)C(=O)/C(=C\N(C)C)c1onc(-c2ccccc2)c1C(=O)OC,–,"inconclusive: 25.1 µM [activator, single point]",–
N#CC(=C1C=C(Br)C(=NO)C=C1Cl)c1ccc(Cl)cc1,inactive: -14.8%,–,–
O=C(CSc1nnc2ccccn12)NNC(=O)c1ccc(Br)cc1,–,"inconclusive: 35.5 µM [activator, single point]",–
COc1cc(C(=O)NCCOc2cc(C)ccc2C(C)C)cc(OC)c1OC,inactive: -32%,–,–
O=C(CSc1nnc(CNc2ccccc2)o1)N1CCc2ccccc21,–,–,inactive [at 57.5 µM]
O=C(NCC1(c2ccccc2)CCCC1)C(=O)Nc1cccc(C(F)(F)F)c1,inconclusive: 36.7% [activator],–,–
Cc1ccc(NC(=S)Nc2cccc(S(=O)(=O)Nc3c(C)n(C)n(-c4ccccc4)c3=O)c2)cc1,inactive: -0.814%,–,–
CCOC(=O)Cc1csc(NC(=O)/C=C/c2ccco2)n1,inconclusive: -85.1% [activator],–,–
CCCCN(C)CCNC(=O)Cn1ncc2c3ccccc3n(CCC)c2c1=O,inactive: -17.7%,–,–
O=C(CNCc1ccc(Cl)cc1)Nc1ccc2c(c1)OCCO2,inactive: -1.13%,–,–
COc1ccc(C(CNC(=O)c2cc(S(=O)(=O)N3CCN(c4ccccc4)CC3)ccc2Cl)N(C)C)cc1 (stereo not drawn),inactive: -37.1%,–,–
O=c1c(O[C@@H]2O[C@H](CO)[C@@H](O)[C@H](O)[C@H]2O)c(-c2ccc(O)cc2)oc2cc(O)cc(O)c12,–,"inconclusive: 100 µM [activator, single point]",–
COc1ccc(S(=O)(=O)N2CCOCC2)cc1NC(=O)C1CCCN1C(=O)c1cccs1 (stereo not drawn),–,"inconclusive: 25.1 µM [activator, full curve, poor fit]",–
COc1ccc2c(Sc3ccccc3)c(C(=O)NCCN(C)C)[nH]c2c1,–,"inconclusive: 56.2 µM [activator, partial curve, poor fit]",–
COc1cccc(-n2nnnc2SCC(=O)N2CCCc3ccccc32)c1,inconclusive: 129% [activator] [at 57.5 µM],–,–
CCN1CCN(CCCNC(=O)CNC(=O)c2nn(-c3ccc(OC)cc3)c(=O)c3ccccc23)CC1,–,"inconclusive: 79.4 µM [activator, partial curve, poor fit]",–

# One compound at a time (already shown). Values in the order: activation | Potency | outcome
# CCCCN(C)CCNC(=O)Cn1ncc2c3ccccc3n(CCC)c2c1=O is entered as inactive: -17.7% | – | –
# COc1cccc(-n2nnnc2SCC(=O)N2CCCc3ccccc32)c1 is entered as inconclusive: 129% [activator] [at 57.5 µM] | – | –
